According to patent US20220411536A1:
These are yes or no findings as the source states them, for the method shown. Some results given as binding are weak or reduced against the parent protein; the word gives no strength.

Protein sequences, listed by entry. Tags and fused reporters are not part of them. Residues count along the entry.
UniProt Q5VWK5, residues 24-355: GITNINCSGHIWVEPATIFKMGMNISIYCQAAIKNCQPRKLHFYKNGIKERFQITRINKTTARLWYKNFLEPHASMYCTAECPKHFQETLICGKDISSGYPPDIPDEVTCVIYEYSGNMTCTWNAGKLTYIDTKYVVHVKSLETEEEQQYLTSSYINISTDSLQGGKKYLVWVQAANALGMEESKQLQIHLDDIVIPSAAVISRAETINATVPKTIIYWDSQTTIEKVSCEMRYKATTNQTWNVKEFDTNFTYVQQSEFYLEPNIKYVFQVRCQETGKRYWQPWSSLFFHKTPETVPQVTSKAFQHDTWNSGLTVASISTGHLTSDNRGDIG

B1: PRO1545 (multispecific antibody)
chain 1: DIQMTQSPSSLSASVGDRVTITCQASQSINDYLAWYQQKPGKAPKLLIYKASTLASGVPSRFSGSGSGTDFTLTISSLQPEDFATYYCQAAYIITDIDNVFGTGTKVTVLGGGGGSGGGGSGGGGSGGGGSQVQLQESGPGLVKPSETLSLTCKVSGFSFSSGYDMCWIRQPPGKGLEWIGCVVAGSVDITYYASWAKGRVTISVDSSKNQFSLKLSSVTAADTAVYYCARKDAYSDAFNLWGQGTLVTVSSGGGGSGGGGSDVVMTQSPSSLSASVGDRVTITCQASQIISSRSAWYQQKPGQPPKLLIYQASKLASGVPSRFSGSGSGTDFTLTISSLQPEDFATYYCQCTYIDSNFGAFGCGTKLTVLGGGSGGSDIQMTQSPSSLSASVGDRVTITCQSSQSVFSNNYLAWFQQKPGQSPKRLIYSASTLASGVPSRFSGSGSGTDFTLTISSLQPEDFATYYCLGSYACSSADCYVFGTGTKVTVLG
chain 2: DIQMTQSPSSLSASVGDRVTITCQASENIYSFLAWYQQKPGKAPKLLIYSASKLAAGVPSRFSGSGSGTDFTLTISSLQPEDFATYYCQQTNRYSNPDIYNVFGTGTKVTVLGGGGGSGGGGSGGGGSGGGGSEVQLVESGGGLVQPGGSLRLSCAASGIDFNSNYYMCWVRQAPGKGLEWIGCIYVGSHVNTYYANWAKGRFTISRDNSKNTVYLQMNSLRAEDTAVYYCATSGSSVLYFKFWGQGTLVTVSSGGGGSGGGGSEVQLVESGGGLVQPGGSLRLSCAASGFSLSSYDMSWVRQAPGKGLAWIGASYASGPTYYASWAKGRFTISRDNSKNTVYLQMNSLRAEDTATYFCARGGWTGTSHSNIWGQGTLVTVSSGGGSGGGSEVQLVESGGGLVQPGGSLRLSCAASGFSFSSSYWICWVRQAPGKCLEWVGCVFTGDGTTYYASWAKGRFTISRDNSKNTVYLQMNSLRAEDTATYFCARPVSVYYYGMDLWGQGTLVTVSS
B2: PRO1546 (multispecific antibody)
chain 1: DIQMTQSPSSLSASVGDRVTITCQASENIYSFLAWYQQKPGKAPKLLIYSASKLAAGVPSRFSGSGSGTDFTLTISSLQPEDFATYYCQQTNRYSNPDIYNVFGTGTKVTVLGGGGGSGGGGSGGGGSGGGGSEVQLVESGGGLVQPGGSLRLSCAASGIDFNSNYYMCWVRQAPGKGLEWIGCIYVGSHVNTYYANWAKGRFTISRDNSKNTVYLQMNSLRAEDTAVYYCATSGSSVLYFKFWGQGTLVTVSSGGGGSGGGGSDVVMTQSPSSLSASVGDRVTITCQASQIISSRSAWYQQKPGQPPKLLIYQASKLASGVPSRFSGSGSGTDFTLTISSLQPEDFATYYCQCTYIDSNFGAFGCGTKLTVLGGGSGGSDIQMTQSPSSLSASVGDRVTITCQSSQSVFSNNYLAWFQQKPGQSPKRLIYSASTLASGVPSRFSGSGSGTDFTLTISSLQPEDFATYYCLGSYACSSADCYVFGTGTKVTVLG
chain 2: DIQMTQSPSSLSASVGDRVTITCQASQSINDYLAWYQQKPGKAPKLLIYKASTLASGVPSRFSGSGSGTDFTLTISSLQPEDFATYYCQAAYIITDIDNVFGTGTKVTVLGGGGGSGGGGSGGGGSGGGGSQVQLQESGPGLVKPSETLSLTCKVSGFSFSSGYDMCWIRQPPGKGLEWIGCVVAGSVDITYYASWAKGRVTISVDSSKNQFSLKLSSVTAADTAVYYCARKDAYSDAFNLWGQGTLVTVSSGGGGSGGGGSEVQLVESGGGLVQPGGSLRLSCAASGFSLSSYDMSWVRQAPGKGLAWIGASYASGPTYYASWAKGRFTISRDNSKNTVYLQMNSLRAEDTATYFCARGGWTGTSHSNIWGQGTLVTVSSGGGSGGGSEVQLVESGGGLVQPGGSLRLSCAASGFSFSSSYWICWVRQAPGKCLEWVGCVFTGDGTTYYASWAKGRFTISRDNSKNTVYLQMNSLRAEDTATYFCARPVSVYYYGMDLWGQGTLVTVSS

Target: recombinant human IL-23R (custom-made by Trenzyme) (human) (UniProt Q5VWK5)
Assay: SPR

Binder | binding
B1 | binds
B2 | binds
